These are yes or no findings as the source states them, for the method shown. In cells and extracts the contact can be indirect. Some results given as binding are weak or reduced against the parent protein; the word gives no strength.
Experiments:
[1] = target: wild-type KDM5B (KDM5B-WT), expressed in HEK293T cells (UniProt Q9UGL1); experiment: co-IP; HEK293T cells transfected with the indicated plasmids, harvested 48 h after transfection; blotted with the indicated antibodies
[2] = target: KDM5B-AA mutant (Lys769 and Lys773 mutated to alanine), expressed in HEK293T cells (UniProt Q9UGL1); experiment: as above
[3] = target: lysine-specific demethylase 5B (KDM5B), endogenous (human (endogenous in HNE1 and CNE2)) (UniProt Q9UGL1); experiment: co-IP; endogenous proteins; HNE1 and CNE2 cells harvested and immunoprecipitated with IgG and USP7 or KDM5B antibodies
GST-KDM5B = GST-KDM5B (UniProt Q9UGL1); experiment: pull-down; GST, GST-KDM5B or GST-CBX7 pulldown from HNE1 cells; Western blot for USP7 and KDM5B; silver staining of the GST protein input; only the target purified

Chains of the proteins cited; added tags and fusions are not shown. Lines headed by an entry give the natural chain unless they say otherwise; changes in a name come on top. A line that says so, or that is headed by a name, gives the form on record, which may keep a tag or linker.
UniProt Q9UGL1: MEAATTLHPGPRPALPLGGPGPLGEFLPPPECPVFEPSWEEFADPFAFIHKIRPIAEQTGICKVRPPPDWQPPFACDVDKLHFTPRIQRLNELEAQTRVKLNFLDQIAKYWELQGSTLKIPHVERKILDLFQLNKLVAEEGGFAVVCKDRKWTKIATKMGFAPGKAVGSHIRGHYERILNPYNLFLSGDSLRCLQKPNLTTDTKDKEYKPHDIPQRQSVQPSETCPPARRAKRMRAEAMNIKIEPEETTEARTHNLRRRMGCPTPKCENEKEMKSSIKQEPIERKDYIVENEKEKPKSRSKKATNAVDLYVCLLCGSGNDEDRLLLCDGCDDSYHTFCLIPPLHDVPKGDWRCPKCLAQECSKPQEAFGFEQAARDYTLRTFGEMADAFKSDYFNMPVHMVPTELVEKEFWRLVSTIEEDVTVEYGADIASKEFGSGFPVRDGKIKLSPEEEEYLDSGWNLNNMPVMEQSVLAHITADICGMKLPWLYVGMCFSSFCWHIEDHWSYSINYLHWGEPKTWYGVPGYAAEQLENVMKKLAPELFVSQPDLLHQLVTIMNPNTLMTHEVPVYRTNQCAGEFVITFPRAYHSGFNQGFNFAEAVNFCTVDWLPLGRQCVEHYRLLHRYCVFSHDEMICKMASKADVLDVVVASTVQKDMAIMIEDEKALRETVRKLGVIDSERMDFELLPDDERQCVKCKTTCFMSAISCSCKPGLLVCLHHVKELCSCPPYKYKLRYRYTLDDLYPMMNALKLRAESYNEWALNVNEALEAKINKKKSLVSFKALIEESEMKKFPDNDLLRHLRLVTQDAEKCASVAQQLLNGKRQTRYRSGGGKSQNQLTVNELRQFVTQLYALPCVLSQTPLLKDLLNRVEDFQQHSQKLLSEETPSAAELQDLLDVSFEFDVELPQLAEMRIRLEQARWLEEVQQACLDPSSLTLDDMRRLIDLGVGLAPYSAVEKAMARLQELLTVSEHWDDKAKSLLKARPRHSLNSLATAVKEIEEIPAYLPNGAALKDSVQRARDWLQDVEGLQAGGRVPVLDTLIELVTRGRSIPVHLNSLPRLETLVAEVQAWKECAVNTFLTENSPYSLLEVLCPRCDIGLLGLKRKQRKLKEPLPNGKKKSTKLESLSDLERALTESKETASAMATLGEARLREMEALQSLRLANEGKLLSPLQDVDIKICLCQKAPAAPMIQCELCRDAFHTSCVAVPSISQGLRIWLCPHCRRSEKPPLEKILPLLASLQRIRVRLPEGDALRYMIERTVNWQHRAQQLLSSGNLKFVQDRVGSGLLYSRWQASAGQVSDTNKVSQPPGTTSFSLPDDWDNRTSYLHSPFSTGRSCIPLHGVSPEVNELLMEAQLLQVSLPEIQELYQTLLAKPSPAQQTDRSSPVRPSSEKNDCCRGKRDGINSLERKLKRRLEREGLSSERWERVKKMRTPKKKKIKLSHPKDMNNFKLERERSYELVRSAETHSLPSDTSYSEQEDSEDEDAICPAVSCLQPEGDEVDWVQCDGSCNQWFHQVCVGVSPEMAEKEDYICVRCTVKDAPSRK
KDM5B-AA mutant (Lys769 and Lys773 mutated to alanine), expressed in HEK293T cells (Q9UGL1, form named): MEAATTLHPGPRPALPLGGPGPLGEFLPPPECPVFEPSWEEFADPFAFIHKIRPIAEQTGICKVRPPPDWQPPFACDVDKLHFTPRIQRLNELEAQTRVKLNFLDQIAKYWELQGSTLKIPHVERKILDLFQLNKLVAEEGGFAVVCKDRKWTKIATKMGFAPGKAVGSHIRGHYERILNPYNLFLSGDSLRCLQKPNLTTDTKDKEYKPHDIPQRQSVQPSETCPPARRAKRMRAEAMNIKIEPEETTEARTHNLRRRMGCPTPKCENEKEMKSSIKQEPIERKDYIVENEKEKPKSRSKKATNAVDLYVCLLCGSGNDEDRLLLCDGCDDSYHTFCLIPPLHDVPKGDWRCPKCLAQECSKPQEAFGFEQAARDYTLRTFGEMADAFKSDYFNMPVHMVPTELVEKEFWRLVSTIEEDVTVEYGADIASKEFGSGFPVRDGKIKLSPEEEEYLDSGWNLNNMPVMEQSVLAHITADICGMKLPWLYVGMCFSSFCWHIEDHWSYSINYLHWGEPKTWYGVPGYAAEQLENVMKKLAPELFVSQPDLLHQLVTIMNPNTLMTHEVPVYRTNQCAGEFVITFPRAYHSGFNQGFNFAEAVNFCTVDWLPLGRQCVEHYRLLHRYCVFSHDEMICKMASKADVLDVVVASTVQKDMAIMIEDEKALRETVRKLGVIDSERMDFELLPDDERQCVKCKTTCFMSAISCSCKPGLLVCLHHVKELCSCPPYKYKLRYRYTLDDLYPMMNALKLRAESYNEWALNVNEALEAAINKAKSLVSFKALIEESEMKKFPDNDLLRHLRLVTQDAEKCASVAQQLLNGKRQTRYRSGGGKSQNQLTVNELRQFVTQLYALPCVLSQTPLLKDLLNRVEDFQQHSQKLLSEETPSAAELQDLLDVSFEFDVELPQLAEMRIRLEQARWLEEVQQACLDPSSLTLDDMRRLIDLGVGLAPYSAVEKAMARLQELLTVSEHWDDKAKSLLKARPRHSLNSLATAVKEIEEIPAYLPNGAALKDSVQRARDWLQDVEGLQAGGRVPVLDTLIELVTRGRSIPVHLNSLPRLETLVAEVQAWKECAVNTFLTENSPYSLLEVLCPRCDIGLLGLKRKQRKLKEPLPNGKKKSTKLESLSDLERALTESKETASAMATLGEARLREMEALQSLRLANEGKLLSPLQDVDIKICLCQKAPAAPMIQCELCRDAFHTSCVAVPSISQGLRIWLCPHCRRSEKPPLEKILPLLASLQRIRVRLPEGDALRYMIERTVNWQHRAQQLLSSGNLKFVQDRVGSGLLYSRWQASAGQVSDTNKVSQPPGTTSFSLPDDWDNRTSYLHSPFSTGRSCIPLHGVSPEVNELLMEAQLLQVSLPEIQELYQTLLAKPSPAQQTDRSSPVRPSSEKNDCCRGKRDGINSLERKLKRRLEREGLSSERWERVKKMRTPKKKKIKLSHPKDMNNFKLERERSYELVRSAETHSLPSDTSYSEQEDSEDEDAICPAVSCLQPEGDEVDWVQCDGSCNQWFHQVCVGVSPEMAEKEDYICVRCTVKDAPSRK
UniProt Q93009: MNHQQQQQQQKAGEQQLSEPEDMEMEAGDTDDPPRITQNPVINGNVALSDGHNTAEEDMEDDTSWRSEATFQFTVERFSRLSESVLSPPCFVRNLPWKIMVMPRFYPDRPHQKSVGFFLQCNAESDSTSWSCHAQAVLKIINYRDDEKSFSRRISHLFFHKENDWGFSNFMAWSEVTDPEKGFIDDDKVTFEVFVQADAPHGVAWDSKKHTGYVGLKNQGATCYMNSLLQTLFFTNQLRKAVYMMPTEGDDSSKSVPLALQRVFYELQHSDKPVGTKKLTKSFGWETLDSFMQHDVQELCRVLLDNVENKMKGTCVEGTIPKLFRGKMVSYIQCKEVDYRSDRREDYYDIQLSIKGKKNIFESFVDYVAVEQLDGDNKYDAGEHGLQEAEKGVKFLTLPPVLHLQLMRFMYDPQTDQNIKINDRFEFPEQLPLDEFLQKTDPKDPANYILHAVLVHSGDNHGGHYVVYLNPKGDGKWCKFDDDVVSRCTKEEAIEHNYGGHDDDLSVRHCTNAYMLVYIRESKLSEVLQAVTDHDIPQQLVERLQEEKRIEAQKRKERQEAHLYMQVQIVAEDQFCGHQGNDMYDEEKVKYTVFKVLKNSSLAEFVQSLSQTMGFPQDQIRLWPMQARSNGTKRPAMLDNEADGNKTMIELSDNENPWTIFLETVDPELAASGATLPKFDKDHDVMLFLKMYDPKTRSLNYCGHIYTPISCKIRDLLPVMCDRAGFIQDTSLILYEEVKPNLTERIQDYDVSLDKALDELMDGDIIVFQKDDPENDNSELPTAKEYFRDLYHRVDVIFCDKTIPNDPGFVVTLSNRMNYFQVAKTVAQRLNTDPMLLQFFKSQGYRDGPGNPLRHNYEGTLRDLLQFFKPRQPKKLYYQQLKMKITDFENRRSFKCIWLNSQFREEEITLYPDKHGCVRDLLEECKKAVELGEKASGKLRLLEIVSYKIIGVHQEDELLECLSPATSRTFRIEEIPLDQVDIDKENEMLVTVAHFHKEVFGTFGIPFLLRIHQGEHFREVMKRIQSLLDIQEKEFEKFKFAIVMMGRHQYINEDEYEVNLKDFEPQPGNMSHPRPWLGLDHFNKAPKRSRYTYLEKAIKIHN

| binding [1] | binding [2] | binding [3] | binding (GST-KDM5B) | Substance |
| --- | --- | --- | --- | --- |
| binds | no binding |  |  | USP7 in HEK293T cells (co-IP of Fig. 6e) (from UniProt Q93009 1-1102) (enzyme) |
|  |  | binds | binds | deubiquitinase USP7, endogenous (from UniProt Q93009 1-1102) (enzyme) |

— article PMC10923876
